In experiment [1] the target is T1, Flag-TRIM30α (mouse) (UniProt P15533).
T1 sequence: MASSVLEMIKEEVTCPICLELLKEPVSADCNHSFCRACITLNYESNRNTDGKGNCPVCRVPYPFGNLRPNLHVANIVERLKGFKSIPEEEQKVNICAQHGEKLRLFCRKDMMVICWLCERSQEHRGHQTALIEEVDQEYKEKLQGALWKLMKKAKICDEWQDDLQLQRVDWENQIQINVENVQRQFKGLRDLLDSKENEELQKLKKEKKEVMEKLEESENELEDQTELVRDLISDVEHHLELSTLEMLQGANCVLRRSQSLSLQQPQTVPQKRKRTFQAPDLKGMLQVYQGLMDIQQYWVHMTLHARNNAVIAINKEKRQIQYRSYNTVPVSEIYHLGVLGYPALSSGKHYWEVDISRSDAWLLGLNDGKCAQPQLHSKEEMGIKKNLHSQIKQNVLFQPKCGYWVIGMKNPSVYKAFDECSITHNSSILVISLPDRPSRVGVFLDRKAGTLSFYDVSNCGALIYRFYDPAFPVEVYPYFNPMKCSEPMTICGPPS
In words: co-IP; HEK293T co-transfected with Flag-TRIM30α and HA-tagged plasmids; lysates 24 h after transfection; IP with anti-Flag Ab and Protein A/G Plus-Agarose overnight at 4°C, blot with anti-HA Ab.

In experiment [2] the target is T2, HA-tagged STING (in vitro translated) (mouse) (UniProt Q3TBT3).
T2 sequence: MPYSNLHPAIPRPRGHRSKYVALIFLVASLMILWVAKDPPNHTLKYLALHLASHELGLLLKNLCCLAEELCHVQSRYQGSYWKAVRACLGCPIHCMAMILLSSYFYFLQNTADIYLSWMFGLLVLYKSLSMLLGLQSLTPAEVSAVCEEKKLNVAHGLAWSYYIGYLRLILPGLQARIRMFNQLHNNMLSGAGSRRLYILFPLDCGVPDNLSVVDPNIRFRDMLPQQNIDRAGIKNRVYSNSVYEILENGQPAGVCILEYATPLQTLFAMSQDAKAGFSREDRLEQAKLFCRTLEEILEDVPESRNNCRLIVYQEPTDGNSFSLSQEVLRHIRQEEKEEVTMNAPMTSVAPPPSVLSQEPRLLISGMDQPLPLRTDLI
The experiment is described as follows: co-IP; HA-tagged STING and Myc-tagged TRIM30α translated in vitro and mixed; IP with anti-HA, blot with anti-Myc.

In article PMC4482643 one finds binding data, which are given here for two molecules.

Results are given in words; binding and its absence hold for the method and conditions named. Binding seen in cells or lysates may run through a third protein. Some entries that bind do so weakly or less than the wild type. Tags and fused reporters may be left off the sequences shown.

B1: HA-TAK1 (protein, UniProt Q62073 1-579)
chain: MSTASAASSSSSSSASEMIEAPSQVLNFEEIDYKEIEVEEVVGRGAFGVVCKAKWRAKDVAIKQIESESERKAFIVELRQLSRVNHPNIVKLYGACLNPVCLVMEYAEGGSLYNVLHGAEPLPYYTAAHAMSWCLQCSQGVAYLHSMQPKALIHRDLKPPNLLLVAGGTVLKICDFGTACDIQTHMTNNKGSAAWMAPEVFEGSNYSEKCDVFSWGIILWEVITRRKPFDEIGGPAFRIMWAVHNGTRPPLIKNLPKPIESLMTRCWSKDPSQRPSMEEIVKIMTHLMRYFPGADEPLQYPCQYSDEGQSNSATSTGSFMDIASTNTSNKSDTNMEQVPATNDTIKRLESKLLKNQAKQQSESGRLSLGASRGSSVESLPPTSEGKRMSADMSEIEARIVATAGNGQPRRRSIQDLTVTGTEPGQVSSRSSSPSVRMITTSGPTSEKPARSHPWTPDDSTDTNGSDNSIPMAYLTLDHQLQPLAPCPNSKESMAVFEQHCKMAQEYMKVQTEIALLLQRKQELVAELDQDEKDQQNTSRLVQEHKKLLDENKSLSTYYQQCKKQLEVIRSQQQKRQGTS
In the case of B1, the binding entry in experiment [1] was “binds”.

B2: Myc-tagged TRIM30α (in vitro translated) (protein, UniProt P15533 1-496)
chain: T1 sequence
On to B2, for which the binding entry in experiment [2] is recorded as “binds”.
